According to the supplement of paper PMC10849652:
This is one part of the list.

Sequences of proteins named here, by UniProt entry; tags and fusion partners are left off. A change or cut given only in a name is not applied to a line headed by its entry.
UniProt Q9UIM3: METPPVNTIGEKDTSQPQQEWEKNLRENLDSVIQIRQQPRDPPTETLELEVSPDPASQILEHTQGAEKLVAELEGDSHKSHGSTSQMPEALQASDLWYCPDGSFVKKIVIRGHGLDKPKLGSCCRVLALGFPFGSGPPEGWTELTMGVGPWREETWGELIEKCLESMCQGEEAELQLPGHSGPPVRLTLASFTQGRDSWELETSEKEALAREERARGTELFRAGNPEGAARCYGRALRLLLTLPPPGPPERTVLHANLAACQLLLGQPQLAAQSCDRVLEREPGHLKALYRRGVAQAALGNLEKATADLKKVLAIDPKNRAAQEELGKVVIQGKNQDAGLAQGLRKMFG
UniProt O95684: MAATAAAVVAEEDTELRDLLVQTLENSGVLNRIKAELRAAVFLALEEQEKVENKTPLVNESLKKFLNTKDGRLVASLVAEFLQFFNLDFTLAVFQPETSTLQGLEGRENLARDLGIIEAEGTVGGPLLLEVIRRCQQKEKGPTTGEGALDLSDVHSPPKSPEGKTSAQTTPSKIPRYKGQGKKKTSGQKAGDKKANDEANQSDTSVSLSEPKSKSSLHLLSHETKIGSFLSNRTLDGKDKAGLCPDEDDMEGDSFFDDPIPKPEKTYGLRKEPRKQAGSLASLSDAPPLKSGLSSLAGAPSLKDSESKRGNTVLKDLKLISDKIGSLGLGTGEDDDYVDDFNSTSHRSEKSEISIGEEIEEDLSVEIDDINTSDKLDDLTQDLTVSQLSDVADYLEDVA
UniProt Q9NRD1: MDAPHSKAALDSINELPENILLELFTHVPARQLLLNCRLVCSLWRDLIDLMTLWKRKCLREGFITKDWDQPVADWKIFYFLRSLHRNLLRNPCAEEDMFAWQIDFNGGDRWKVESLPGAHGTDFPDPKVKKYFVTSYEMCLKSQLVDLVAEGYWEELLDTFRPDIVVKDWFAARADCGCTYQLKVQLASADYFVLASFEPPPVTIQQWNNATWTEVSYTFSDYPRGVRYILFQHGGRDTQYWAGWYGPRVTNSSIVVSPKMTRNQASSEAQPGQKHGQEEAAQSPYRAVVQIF
UniProt Q6ZV73: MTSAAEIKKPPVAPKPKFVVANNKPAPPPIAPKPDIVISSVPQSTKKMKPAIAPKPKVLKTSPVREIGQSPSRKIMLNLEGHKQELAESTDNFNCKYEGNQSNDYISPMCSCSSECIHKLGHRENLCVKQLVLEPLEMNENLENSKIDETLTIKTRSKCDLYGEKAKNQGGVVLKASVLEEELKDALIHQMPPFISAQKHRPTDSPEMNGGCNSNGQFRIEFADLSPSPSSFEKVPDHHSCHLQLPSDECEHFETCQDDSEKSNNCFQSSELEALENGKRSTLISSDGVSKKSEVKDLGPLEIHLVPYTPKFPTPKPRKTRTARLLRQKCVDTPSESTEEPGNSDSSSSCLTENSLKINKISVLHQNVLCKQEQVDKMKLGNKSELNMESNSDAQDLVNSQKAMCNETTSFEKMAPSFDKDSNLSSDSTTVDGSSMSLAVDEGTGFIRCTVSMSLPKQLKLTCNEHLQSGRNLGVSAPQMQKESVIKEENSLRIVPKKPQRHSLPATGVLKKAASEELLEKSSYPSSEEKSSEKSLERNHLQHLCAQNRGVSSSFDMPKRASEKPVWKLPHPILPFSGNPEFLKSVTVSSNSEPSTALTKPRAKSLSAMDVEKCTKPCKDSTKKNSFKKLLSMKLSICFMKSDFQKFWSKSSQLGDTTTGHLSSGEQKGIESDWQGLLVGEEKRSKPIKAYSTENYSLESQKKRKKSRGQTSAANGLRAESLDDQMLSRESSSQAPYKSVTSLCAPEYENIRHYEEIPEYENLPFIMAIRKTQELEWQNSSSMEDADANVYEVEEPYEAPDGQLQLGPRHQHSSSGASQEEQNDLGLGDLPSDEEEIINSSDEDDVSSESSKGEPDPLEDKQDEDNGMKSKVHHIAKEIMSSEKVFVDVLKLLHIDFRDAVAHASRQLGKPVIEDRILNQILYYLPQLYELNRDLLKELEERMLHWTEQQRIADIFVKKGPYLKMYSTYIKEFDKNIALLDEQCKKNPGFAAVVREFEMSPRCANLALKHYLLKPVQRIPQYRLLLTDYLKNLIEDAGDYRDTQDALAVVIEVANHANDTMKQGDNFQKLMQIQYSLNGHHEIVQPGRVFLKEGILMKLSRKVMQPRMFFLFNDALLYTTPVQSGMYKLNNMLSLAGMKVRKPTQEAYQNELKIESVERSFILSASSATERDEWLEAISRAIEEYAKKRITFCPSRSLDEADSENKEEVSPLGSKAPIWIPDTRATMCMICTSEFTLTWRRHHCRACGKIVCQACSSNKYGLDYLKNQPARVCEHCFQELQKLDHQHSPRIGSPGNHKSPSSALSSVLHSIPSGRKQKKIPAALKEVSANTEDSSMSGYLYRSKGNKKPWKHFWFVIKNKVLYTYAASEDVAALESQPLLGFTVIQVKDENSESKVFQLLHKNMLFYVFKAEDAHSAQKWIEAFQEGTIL
UniProt Q8NFF5: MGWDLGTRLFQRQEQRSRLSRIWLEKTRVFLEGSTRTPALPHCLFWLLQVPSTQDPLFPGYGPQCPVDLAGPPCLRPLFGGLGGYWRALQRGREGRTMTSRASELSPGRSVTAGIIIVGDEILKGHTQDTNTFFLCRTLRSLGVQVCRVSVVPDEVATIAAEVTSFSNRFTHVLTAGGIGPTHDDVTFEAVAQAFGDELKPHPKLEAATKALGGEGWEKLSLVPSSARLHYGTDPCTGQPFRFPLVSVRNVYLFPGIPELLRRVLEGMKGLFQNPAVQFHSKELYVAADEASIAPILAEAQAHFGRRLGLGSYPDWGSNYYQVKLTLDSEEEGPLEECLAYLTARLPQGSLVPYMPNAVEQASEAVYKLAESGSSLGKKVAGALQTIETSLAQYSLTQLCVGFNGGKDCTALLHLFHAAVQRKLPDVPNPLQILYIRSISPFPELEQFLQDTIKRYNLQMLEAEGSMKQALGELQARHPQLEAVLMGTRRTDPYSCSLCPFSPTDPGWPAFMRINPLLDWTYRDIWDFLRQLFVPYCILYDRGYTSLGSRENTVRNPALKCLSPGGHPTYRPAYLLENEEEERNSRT
UniProt Q9UBU6: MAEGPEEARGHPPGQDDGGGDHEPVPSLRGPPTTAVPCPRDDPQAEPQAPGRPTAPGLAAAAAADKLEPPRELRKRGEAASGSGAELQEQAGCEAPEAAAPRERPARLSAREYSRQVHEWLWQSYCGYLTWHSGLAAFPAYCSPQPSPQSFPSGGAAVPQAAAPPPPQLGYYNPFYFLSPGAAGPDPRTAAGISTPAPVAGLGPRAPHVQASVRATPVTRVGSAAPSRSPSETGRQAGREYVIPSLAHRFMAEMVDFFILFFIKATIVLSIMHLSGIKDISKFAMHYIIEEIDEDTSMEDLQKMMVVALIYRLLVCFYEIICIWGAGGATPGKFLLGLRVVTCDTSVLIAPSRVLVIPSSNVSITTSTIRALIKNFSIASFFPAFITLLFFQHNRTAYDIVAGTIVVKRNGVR
UniProt O43427: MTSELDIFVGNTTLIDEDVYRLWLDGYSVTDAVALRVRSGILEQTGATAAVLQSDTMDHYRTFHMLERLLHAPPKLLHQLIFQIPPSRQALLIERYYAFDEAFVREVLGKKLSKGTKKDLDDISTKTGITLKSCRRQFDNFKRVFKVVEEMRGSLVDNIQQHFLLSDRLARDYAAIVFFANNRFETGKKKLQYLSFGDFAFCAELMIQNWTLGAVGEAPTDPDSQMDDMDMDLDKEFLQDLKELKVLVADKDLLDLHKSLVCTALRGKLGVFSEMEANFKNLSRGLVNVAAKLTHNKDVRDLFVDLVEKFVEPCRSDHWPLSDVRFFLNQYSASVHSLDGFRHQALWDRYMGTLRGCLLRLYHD
UniProt Q9NXK8: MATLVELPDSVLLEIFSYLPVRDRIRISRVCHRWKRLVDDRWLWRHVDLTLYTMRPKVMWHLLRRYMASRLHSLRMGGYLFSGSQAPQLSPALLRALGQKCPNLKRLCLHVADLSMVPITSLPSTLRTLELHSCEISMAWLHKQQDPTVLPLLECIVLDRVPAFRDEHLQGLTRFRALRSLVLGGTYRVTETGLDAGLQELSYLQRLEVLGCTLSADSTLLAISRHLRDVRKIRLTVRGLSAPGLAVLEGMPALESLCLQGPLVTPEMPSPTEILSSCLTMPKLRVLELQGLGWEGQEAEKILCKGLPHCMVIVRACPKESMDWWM
UniProt P26885: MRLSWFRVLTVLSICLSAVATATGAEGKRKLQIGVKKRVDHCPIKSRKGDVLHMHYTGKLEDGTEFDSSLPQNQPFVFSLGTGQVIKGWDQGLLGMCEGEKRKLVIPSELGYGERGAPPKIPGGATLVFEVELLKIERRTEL
UniProt O95466, whole entry, looked up: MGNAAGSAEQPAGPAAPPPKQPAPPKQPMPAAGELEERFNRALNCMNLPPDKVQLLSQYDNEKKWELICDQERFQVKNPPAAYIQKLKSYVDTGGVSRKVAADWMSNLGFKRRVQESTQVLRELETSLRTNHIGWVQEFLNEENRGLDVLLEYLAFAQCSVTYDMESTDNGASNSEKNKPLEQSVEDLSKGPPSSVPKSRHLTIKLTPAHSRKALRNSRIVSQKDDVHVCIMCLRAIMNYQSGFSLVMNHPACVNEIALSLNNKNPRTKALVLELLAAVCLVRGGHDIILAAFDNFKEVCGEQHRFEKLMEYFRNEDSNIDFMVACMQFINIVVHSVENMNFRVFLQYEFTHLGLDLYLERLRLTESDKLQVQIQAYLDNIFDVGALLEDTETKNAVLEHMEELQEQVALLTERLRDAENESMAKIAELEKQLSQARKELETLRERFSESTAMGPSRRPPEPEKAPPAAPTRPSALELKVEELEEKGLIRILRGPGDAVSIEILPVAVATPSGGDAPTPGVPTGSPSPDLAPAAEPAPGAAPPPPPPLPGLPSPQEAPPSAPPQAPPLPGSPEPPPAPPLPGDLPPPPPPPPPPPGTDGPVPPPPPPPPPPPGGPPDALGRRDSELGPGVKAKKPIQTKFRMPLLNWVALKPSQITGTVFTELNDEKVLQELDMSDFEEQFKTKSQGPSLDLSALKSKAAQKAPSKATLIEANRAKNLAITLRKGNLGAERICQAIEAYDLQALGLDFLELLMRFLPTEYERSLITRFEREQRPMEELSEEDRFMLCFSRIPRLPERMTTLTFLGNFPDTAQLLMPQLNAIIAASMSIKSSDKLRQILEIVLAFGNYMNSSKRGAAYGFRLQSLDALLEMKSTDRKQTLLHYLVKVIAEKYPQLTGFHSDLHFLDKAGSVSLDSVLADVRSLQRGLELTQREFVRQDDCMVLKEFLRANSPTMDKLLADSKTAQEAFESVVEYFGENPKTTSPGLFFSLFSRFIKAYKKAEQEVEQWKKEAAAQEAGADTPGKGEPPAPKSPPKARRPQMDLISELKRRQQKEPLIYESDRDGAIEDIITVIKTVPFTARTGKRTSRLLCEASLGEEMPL
UniProt Q13451: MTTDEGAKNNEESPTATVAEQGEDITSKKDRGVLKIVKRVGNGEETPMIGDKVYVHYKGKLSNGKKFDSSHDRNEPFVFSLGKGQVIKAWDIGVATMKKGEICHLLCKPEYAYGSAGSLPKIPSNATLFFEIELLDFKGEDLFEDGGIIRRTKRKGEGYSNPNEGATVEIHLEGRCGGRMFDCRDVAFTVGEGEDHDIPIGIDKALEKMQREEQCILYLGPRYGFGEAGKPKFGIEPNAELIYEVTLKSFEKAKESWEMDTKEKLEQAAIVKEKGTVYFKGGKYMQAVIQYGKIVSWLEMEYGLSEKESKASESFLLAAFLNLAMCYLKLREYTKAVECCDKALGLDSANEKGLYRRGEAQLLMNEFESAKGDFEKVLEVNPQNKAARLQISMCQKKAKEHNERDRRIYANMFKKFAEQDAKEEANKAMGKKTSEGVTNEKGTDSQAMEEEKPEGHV
UniProt P22570: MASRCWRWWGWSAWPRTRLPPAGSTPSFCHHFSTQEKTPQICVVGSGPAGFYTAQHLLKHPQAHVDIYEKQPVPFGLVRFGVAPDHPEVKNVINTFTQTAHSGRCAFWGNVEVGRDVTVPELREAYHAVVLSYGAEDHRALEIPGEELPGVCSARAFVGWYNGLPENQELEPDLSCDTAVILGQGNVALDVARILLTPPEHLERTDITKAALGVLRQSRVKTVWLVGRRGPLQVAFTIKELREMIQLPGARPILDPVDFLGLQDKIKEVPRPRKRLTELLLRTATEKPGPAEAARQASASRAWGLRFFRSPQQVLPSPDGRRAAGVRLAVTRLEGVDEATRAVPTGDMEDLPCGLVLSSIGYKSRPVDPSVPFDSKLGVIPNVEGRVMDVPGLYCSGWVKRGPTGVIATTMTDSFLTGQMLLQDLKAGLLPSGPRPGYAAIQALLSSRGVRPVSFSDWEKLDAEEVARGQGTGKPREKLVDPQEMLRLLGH

The targets below were run with Cc1cccc(CC(=O)N2CCc3c2ccc(-c2cn(C)c4ncnc(N)c24)c3F)n1 (assay: log2 fold change, soluble protein after heating vs DMSO (PISA); higher = thermal stabilisation; K562 lysate, 10 uM; active = over 0.2 and 3.5 SD of the protein, either way, in both replicates (recomputed)).
Method in brief: (§1)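 To prepare the extract, K562 pellets were dounce-homogenised in PBS pH 7.4 with 1 mM MgCl2, giving crude material at 1 mg/mL protein. This was treated with 10 μM compound for 30 min, then heated in aliquots for 3 min over 48°C-58°C before pooling and addition of NP-40 to 0.5% at 4°C. Centrifugation at 21,000xg for 90 min left soluble protein in the supernatant, which TMTpro 16plex LC-MS/MS quantified with equalised channel sums. Results are log-two fold changes in thermal stability compared with solvent controls, from duplicates.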

log2 fold change, inactive:
FKBPL (UniProt Q9UIM3) -0.002, FAR1 (UniProt Q8WVX9) 0.168, FLII (UniProt Q13045) 0.003, FAU (UniProt E9PR30) -0.121, FGFR1OP (UniProt O95684) 0.002, FNTB (UniProt P49356) 0.015, FBXO6 (UniProt Q9NRD1) -0.01, FGD6 (UniProt Q6ZV73) 0.142, FLAD1 (UniProt Q8NFF5) -0.05, FLNC (UniProt Q14315) 0.022, FAM8A1 (UniProt Q9UBU6) 0.082, FBXW9 (UniProt Q5XUX1) 0.02, FAM98C (UniProt Q17RN3) 0.038, FIBP (UniProt O43427) 0.094, FBXL12 (UniProt Q9NXK8) 0.009, FBLL1 (UniProt A6NHQ2) 0.053, FN1 (UniProt P02751) 0.098, FECH isoform 2 (UniProt P22830) -0.036, FAM98A (UniProt Q8NCA5) 0, FASN (UniProt P49327) 0.033, FKBP2 (UniProt P26885) -0.048, FMNL1 isoform 3 (UniProt O95466) 0.042, FKBP8 isoform 2 (UniProt Q14318) 0.013, FBXL18 isoform 4 (UniProt Q96ME1) -0.022, FKBP5 (UniProt Q13451) 0, FDXR isoform 7 (UniProt P22570) -0.016, FLNB isoform 8 (UniProt O75369) 0.019, FBXL8 (UniProt Q96CD0) 0.021, FERMT3 (UniProt Q86UX7) 0.055, FNBP1L (UniProt Q5T0N5) -0.026, FBXO3 (UniProt Q9UK99) 0.007, FEZ2 isoform 2 (UniProt Q9UHY8) -0.018, FLCN (UniProt Q8NFG4) 0.033

Each target was assayed with Cc1cn(-c2cc(NC(=O)c3ccc(C)c(Nc4nccc(-c5cccnc5)n4)c3)cc(C(F)(F)F)c2)cn1 [nilotinib] in the same assay as above.
Method in brief: as §1

log2 fold change, inactive:
FKBPL (UniProt Q9UIM3) 0.053, FAR1 (UniProt Q8WVX9) 0.004, FLII (UniProt Q13045) 0.006, FAU (UniProt E9PR30) 0.006, FGFR1OP (UniProt O95684) 0.008, FNTB (UniProt P49356) -0.005, FBXO6 (UniProt Q9NRD1) 0.032, FGD6 (UniProt Q6ZV73) -0.004, FLAD1 (UniProt Q8NFF5) 0.051, FLNC (UniProt Q14315) 0.006, FAM8A1 (UniProt Q9UBU6) -0.051, FBXW9 (UniProt Q5XUX1) -0.052, FAM98C (UniProt Q17RN3) 0.214, FIBP (UniProt O43427) -0.001, FBXL12 (UniProt Q9NXK8) -0.025, FBLL1 (UniProt A6NHQ2) 0.006, FN1 (UniProt P02751) 0.014, FECH isoform 2 (UniProt P22830) 0.796, FAM98A (UniProt Q8NCA5) -0.045, FASN (UniProt P49327) 0.009, FKBP2 (UniProt P26885) -0.036, FMNL1 isoform 3 (UniProt O95466) -0.174, FKBP8 isoform 2 (UniProt Q14318) -0.019, FBXL18 isoform 4 (UniProt Q96ME1) 0.038, FKBP5 (UniProt Q13451) -0.039, FDXR isoform 7 (UniProt P22570) -0.001, FLNB isoform 8 (UniProt O75369) 0.009, FBXL8 (UniProt Q96CD0) 0.11, FERMT3 (UniProt Q86UX7) -0.017, FNBP1L (UniProt Q5T0N5) -0.076, FBXO3 (UniProt Q9UK99) -0.027, FEZ2 isoform 2 (UniProt Q9UHY8) 0.002, FLCN (UniProt Q8NFG4) 0.049

The targets below were run with Cc1nc(Nc2n[nH]c3c2CN(C(=O)N[C@H](CN(C)C)c2ccccc2)C3(C)C)c2sccc2n1 in the same assay as above.
Method in brief: as §1

log2 fold change, inactive:
FKBPL (UniProt Q9UIM3) -0.029, FAR1 (UniProt Q8WVX9) -0.045, FLII (UniProt Q13045) 0.027, FAU (UniProt E9PR30) 0.001, FGFR1OP (UniProt O95684) -0.044, FNTB (UniProt P49356) 0.016, FBXO6 (UniProt Q9NRD1) 0.008, FGD6 (UniProt Q6ZV73) -0.169, FLAD1 (UniProt Q8NFF5) -0.026, FLNC (UniProt Q14315) 0.005, FAM8A1 (UniProt Q9UBU6) -0.184, FBXW9 (UniProt Q5XUX1) 0.004, FAM98C (UniProt Q17RN3) -0.059, FIBP (UniProt O43427) 0.036, FBXL12 (UniProt Q9NXK8) -0.035, FBLL1 (UniProt A6NHQ2) -0.015, FN1 (UniProt P02751) 0.036, FECH isoform 2 (UniProt P22830) 0, FAM98A (UniProt Q8NCA5) 0.034, FASN (UniProt P49327) -0.005, FKBP2 (UniProt P26885) -0.055, FMNL1 isoform 3 (UniProt O95466) -0.043, FKBP8 isoform 2 (UniProt Q14318) -0.055, FBXL18 isoform 4 (UniProt Q96ME1) -0.044, FKBP5 (UniProt Q13451) 0.002, FDXR isoform 7 (UniProt P22570) -0.012, FLNB isoform 8 (UniProt O75369) -0.006, FBXL8 (UniProt Q96CD0) -0.027, FERMT3 (UniProt Q86UX7) -0.002, FNBP1L (UniProt Q5T0N5) 0.03, FBXO3 (UniProt Q9UK99) 0.056, FEZ2 isoform 2 (UniProt Q9UHY8) 0.005, FLCN (UniProt Q8NFG4) -0.033
